Experimental findings from PMC6203740 are described below.

Chains of the proteins cited; added tags and fusions are not shown.
UniProt Q9QZL0: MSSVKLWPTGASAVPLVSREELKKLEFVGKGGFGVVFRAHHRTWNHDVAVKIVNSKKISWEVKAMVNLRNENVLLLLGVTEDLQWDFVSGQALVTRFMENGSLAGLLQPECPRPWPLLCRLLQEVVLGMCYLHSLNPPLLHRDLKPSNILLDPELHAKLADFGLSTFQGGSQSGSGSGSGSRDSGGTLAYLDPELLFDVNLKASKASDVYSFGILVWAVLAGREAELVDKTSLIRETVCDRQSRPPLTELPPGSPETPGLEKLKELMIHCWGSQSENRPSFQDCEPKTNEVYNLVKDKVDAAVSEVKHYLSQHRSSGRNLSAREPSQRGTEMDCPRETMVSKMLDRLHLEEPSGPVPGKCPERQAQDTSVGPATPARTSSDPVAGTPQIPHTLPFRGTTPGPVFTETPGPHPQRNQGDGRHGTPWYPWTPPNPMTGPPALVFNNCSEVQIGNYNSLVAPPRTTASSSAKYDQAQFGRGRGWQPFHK

Positions count from the first letter of the chain named. Numbers in names are those of the source. Results are given in words; binding and its absence hold for the method and conditions named. For some assays here: Binding seen in cells or lysates may run through a third protein. Some binding calls cover weakened binding; strength is not graded here. For some assays here: Sequences can lack the tags named with a protein.

The target of experiment [1] is T1, Myc-MLKL (murine mixed lineage kinase domain-like) (mouse) (UniProt Q9D2Y4).
T1 sequence: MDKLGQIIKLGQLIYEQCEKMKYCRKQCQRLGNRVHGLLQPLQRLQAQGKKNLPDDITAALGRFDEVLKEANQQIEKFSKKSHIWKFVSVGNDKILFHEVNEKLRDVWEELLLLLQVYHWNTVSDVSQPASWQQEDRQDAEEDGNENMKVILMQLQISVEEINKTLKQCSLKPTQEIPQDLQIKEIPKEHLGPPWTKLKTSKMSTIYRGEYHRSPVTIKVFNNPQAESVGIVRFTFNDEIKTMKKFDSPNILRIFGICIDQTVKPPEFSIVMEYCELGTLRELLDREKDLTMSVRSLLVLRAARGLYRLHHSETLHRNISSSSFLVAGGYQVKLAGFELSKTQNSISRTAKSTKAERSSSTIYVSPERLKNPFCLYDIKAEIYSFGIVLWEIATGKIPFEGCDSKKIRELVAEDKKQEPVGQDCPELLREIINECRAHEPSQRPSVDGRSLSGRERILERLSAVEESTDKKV
In words: co-IP; HEK293T co-transfected with a FRET probe, Myc-MLKL and FLAG-RIPK3; 24 h after transfection IP with anti-Myc or control antibody; immunoblot.

For experiment [2], the target named is MLKL Q343A (auto-activated form of murine MLKL) (mouse) (UniProt Q9D2Y4). In words: SDS-PAGE under non-reducing conditions with immunoblot; Mlkl-/- MEFs-SMART/MLKL Q343A treated with Dox for the indicated times; lysates on non-reducing SDS-PAGE, blot with anti-MLKL.

For “FLAG-RIPK3 (murine receptor-interacting protein kinase 3) (from UniProt Q9QZL0 1-486)”, the binding result in experiment [1] is given as “binds”.

B1: MLKL Q343A (auto-activated form of murine MLKL) (protein, UniProt Q9D2Y4 1-472)
chain: T1 sequence with Q343A
With B1, the binding entry in experiment [2] is reported as “binds”.
